Laboratory results as given in PubChem BioAssay AID493014 (National Center for Advancing Translational Sciences (NCATS), 2011).
Out of some 340,000 compounds screened, about 170 (0.05%) were called active. Inconclusive results, whose numbers are uncertain, are shown with a selection of clear calls. Calls come from the whole dose curve; as a rule, active = well fitted inhibition curve with a large enough effect in the signal ratio, with a control signal flat (not every such curve was filed as active); inconclusive = small, poorly fitted or top-dose-only effect, or effect the other way, or a change in a side signal; inactive = flat fitted curve, though single readings scatter; the % refers to the signal ratio. Where the call is inconclusive, the potency comes from a doubtful curve fit.

Assay: qHTS Assay to Find Inhibitors of Chronic Active B-Cell Receptor Signaling;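 for activity change, negative = inhibition: plate controls were basal doxycycline-induced cells for no effect and cells given 10 µM MG132 for full effect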
Details: ABC-DLBCL IkBa-CBG/CBR reporter, luminescence ratio (green luciferase fused to IkBa over red control in TMD8 lymphoma cells), 4 h; activity change, negative = inhibition: at 46.1 µM (top of the series) unless noted
Summary of the method: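 TMD8 ABC-DLBCL cells carrying doxycycline-inducible green luciferase fused to IkappaBalpha plus unfused red luciferase were exposed to compounds (up to 46 uM) for 4 hrs at 37C. Activity came from the overlap-corrected green/red luminescence ratio.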
Potency is the fitted concentration of half-maximal effect.

SMILES	Potency	activity change, negative = inhibition
COc1cccc(CSc2nc3ccncc3[nH]2)c1	inconclusive: 12.6 µM [falling, partial curve, poor fit]	
C/C=C/C(=O)OCC(=O)Nc1cc(OC)c([N+](=O)[O-])cc1C		inconclusive: 4.58%
O=C(CC1CCCCC1)NCc1ccc(F)cc1		inconclusive: 11.1%
Cc1ccc(Oc2ccc3c(c2)C(=O)N(c2ccc(S(=O)(=O)Nc4nccs4)cc2)C3=O)cc1		inconclusive: 1.4%
Cc1ccccc1NC(=O)COC(=O)c1ccc(S(C)(=O)=O)c([N+](=O)[O-])c1	inconclusive: 3.16 µM [falling, partial curve, poor fit]	
CCOC(=O)CSc1nc2cc(C(=O)N3CCC(C(N)=O)CC3)ccc2c(=O)n1C1CCCCC1		inactive
COc1ccccc1C(CCN(Cc1cccs1)C(C)=O)c1ccco1 (configuration not stated)		inconclusive: -0.994%
O=C(CNC(=O)c1cccc(OC(F)F)c1)Nc1ccc(Cl)cc1	inconclusive: 20 µM [falling, single point]	
COC(=O)/C(C#N)=C/c1c(N2CCCCCC2)nc2c(C)cccn2c1=O		inconclusive: 7.58%
COc1ccccc1N(CC(=O)NC1CCCC1)C(=O)CNC(=O)c1cccs1	inconclusive: 11.2 µM [falling, partial curve]	
CC(=O)Nc1ccc2c(c1)N(C(C)=O)c1ccccc1CC2	inconclusive: 1.78 µM [falling, full curve, poor fit]	
O=C(CCC(=O)NC1CCCCC1)Nc1cccnc1		inactive
CN1/C(=C\C(=O)c2cccnc2)Sc2ccccc21		inconclusive: -3.58%
O=C(NC1CC(=O)N(c2cccc(F)c2)C1)C(=O)c1c[nH]c2ccccc12 (configuration not stated)	inconclusive: 23.1 µM [rising, single point]	
OCCC1CN(CC(c2ccccc2)c2ccccc2)CCN1C1CCCC1 (configuration not stated)		inactive
CCN1C(=O)/C(=C\c2nc3ccccc3c(=O)n2-c2ccccc2)c2ccccc21		inconclusive: -4.04%
CC(C)(C)c1ccc(C(=O)NC(=S)Nc2ccc(N3CCOCC3)cc2)cc1		inactive
COc1cc2c(=O)n(Cc3ccco3)c(=O)n(CC(=O)c3cccc(Br)c3)c2cc1OC		inconclusive: 7.02%
O=C(CN1C(=O)NC2(CCOc3ccccc32)C1=O)Nc1cccc(Cl)c1 (configuration not stated)		inconclusive: -5.55%
COc1cc(Nc2nc(SCC(=O)c3ccc(Cl)c(Cl)c3)nc3ccccc23)cc(OC)c1		inconclusive: 1.51%
O=C(CN1CCN(S(=O)(=O)c2ccc(Cl)cc2)CC1)N1CCCC1		inactive
Nc1ncnc(Nc2ccc(S(N)(=O)=O)cc2)n1		inactive
Cc1ccc(S(=O)(=O)Nc2ccc(O)c3cccnc23)cc1		inconclusive: -11.3%
Cc1ccc(S(=O)(=O)NCC(=O)OCC(=O)c2c(N)n(C)c(=O)n(C)c2=O)cc1		inactive
CC(=O)C1=C(O)C(=O)N(c2ccc(Br)cn2)C1c1ccccc1[N+](=O)[O-] (configuration not stated)		inconclusive: -3.75%
COc1cccc(NC(=O)CNC(=O)[C@@H]2Cc3ccccc3CN2C(=O)OC(C)(C)C)c1		inconclusive: -15.5%

SMILES	Potency	activity change, negative = inhibition
C=CCN(Cc1cc(OC)ccc1OC)S(=O)(=O)N(C)C		inconclusive: -2%
C=CCn1c(=O)c2ccccc2n2c(=S)[nH]nc12		inconclusive: 1.26%
COc1ccccc1-c1nc2s/c(=C\c3cccs3)c(=O)n2n1	inconclusive: 20.6 µM [falling, partial curve]	
CC(=O)OCC1(C)CN(c2ccccc2)N(C(=O)c2ccc(F)cc2)C1=O (configuration not stated)		inconclusive: -26.3%
Fc1ccc(NC(=S)Nc2cccc3ccccc23)cc1		inactive
CCOCCCNC(=O)/C(C#N)=C/c1ccc(Cl)c([N+](=O)[O-])c1		inconclusive: 9.37%
COc1cc(OC)cc(-c2cc3ncccc3cn2)c1		inconclusive: -11.6%
CN(C)S(=O)(=O)Oc1ccsc1C(=O)Nc1ccc(Br)cc1		inactive
O=C(Nc1ccccc1C(=O)Nc1ccc(F)cc1)c1ccco1		inconclusive: -19.5%
COc1cc(/C=C2\CCc3ccccc3C2=O)cc(OC)c1OC	inconclusive: 18.4 µM [falling, single point]	
C/C(=C\c1ccccc1)CN1CCC(C(=O)N2CCC(C)CC2)CC1		inactive
O=C(Nc1nc(-c2ccccc2)cs1)c1cccnc1		inconclusive: -3.16%
COc1ccc(CC(=O)N[C@@H](CCSC)c2nc3ccccc3[nH]2)cc1		inconclusive: -2.63%
CCC(=O)Nc1ccc(NC(=S)NC(=O)/C=C/c2ccco2)cc1		inactive
Cc1ccc(C(=O)N2CCN(c3cccc(C)c3C)CC2)cc1S(=O)(=O)N1CCOCC1		inactive
COc1cc(C(F)(F)F)nc2c(Br)c(C(C)(C)C)nn12		inconclusive: 27.4%
Cc1nnc(N/N=C/C2CC=CCC2)[nH]c1=O (configuration not stated)	inconclusive: 35.5 µM [falling, single point]	
Clc1ccc(-c2noc(CCCc3ccccc3)n2)cc1		inconclusive: 24.8%
Cc1cc(C)cc(N=Cc2c(O)c3ccccc3oc2=O)c1	inconclusive: 2.51 µM [falling, full curve, poor fit]	
CCOC(=O)c1ccc(Nc2nn3c(=O)c4ccccc4nc3s2)cc1		inconclusive: 13%
Cn1nnnc1Sc1ncnc2scc(-c3ccsc3)c12	inconclusive: 18.4 µM [falling, partial curve]	
COc1ccc(N2CCC(CNC(=O)Nc3ccc(C)c(C)c3)C2)cc1 (configuration not stated)		inconclusive: 2.99%
O=C(Nc1ccc(F)cc1)c1nc[nH]c1C(=O)O		inconclusive: -16.4%
c1ccc(CSc2nnc(-c3ccco3)c(-c3ccco3)n2)cc1		inconclusive: -20%
O=C(Nc1ccc2c(c1)OCCO2)C1CCCN(S(=O)(=O)c2cnc[nH]2)C1 (configuration not stated)	inconclusive: 23.1 µM [falling, single point]	
Cn1c(=O)oc2cc(S(=O)(=O)Nc3ccc(F)cc3)ccc21	inconclusive: 15.8 µM [falling, partial curve, poor fit]	
